# The supplement of paper PMC8728848
# This is one part of the list.
# B1: PX9916F-bfa-443-24-443 (Bacteroides fragilis) (protein)
# chain: DIRPVGSVIPQTAEEYRALLARAYLNVPNDRGLACLRSDEMLVNDNEYDRNSYGDIERWNDVSPFPGTSQFTWSNFYNVLFIANQVIESQKEITEGTPEVVNQLVGEAHLLRAYLHFVLVNLHGQPYTKSGALNSKSIPLKLDTDLEKTLGRNTVEEVYTSILSDIEHARELINKEKWETVFSYRFNVLSVDALQSRVSLYMGAWPKCLESAEAVLAKKSVLVDMNETPLALPNHFESVESITALEQVMGSSVNNAVWVPATFLALYQEGDKRLAAYFAAPDENGNRKSSKGGKREFSCTFRVGELYLNAAEAAANMDKLPHARMRLLELMRKRYTPEAYDKKENAVNVMDKNALISEILNERARELAFEGHRWFDLRRTTRPRMVKVLQGKTYILEQDDPRYTIPIPRDAIAANPGLAN
# Assays:
# Assay in all cases: glycan array binding signal (z-score within array); higher = stronger binding
# Details in all cases: glycan notation: IUPAC condensed, linker removed
# [1] = molecular target: GlcNAc(b1-4)GlcNAc(b1-4)GlcNAc(b1-4)GlcNAc(b1-4)GlcNAc(b1-4)GlcNAc
# In short: (§1)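 Columns mapping to the same glycan were averaged after glycan names were converted to IUPAC-condensed notation. The data come from 3228 arrays in the Consortium for Functional Glycomics database, limited to those with an available protein sequence. Binding is reported as a within-array Z-score averaged across arrays of one protein sequence and across linkers.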
# [2] = molecular target: GlcNAc(b1-4)[GlcNAc(b1-6)]GalNAc
# In short: as §1
# [3] = molecular target: GlcNAc(b1-6)Gal(b1-4)GlcNAc
# In short: as §1
# GlcNAc(b1-6)GalNAc = molecular target: GlcNAc(b1-6)GalNAc
# In short: as §1
# [4] = molecular target: GlcNAc6S(b1-3)Gal(b1-4)GlcNAc
# In short: as §1
# Kdn(a2-3)Gal(b1-3)GalNAc = molecular target: Kdn(a2-3)Gal(b1-3)GalNAc
# In short: as §1
# Kdn(a2-3)Gal(b1-3)GlcNAc = molecular target: Kdn(a2-3)Gal(b1-3)GlcNAc
# In short: as §1
# Kdn(a2-3)Gal(b1-4)Glc = molecular target: Kdn(a2-3)Gal(b1-4)Glc
# In short: as §1
# Kdn(a2-3)Gal(b1-4)GlcNAc = molecular target: Kdn(a2-3)Gal(b1-4)GlcNAc
# In short: as §1
# [5] = molecular target: Kdn(a2-3)Gal(b1-4)[Fuc(a1-3)]GlcNAc
# In short: as §1
# Kdn(a2-6)Gal(b1-4)GlcNAc = molecular target: Kdn(a2-6)Gal(b1-4)GlcNAc
# In short: as §1
# [6] = molecular target: Man(a1-2)Man(a1-2)Man(a1-3)Man
# In short: as §1
# [7] = molecular target: Man(a1-2)Man(a1-2)Man(a1-6)[Man(a1-3)]Man
# In short: as §1
# Man(a1-2)Man(a1-3)Man = molecular target: Man(a1-2)Man(a1-3)Man
# In short: as §1
# [8] = molecular target: Man(a1-2)Man(a1-3)[Man(a1-2)Man(a1-6)]Man
# In short: as §1
# [9] = molecular target: Man(a1-2)Man(a1-3)[Man(a1-2)Man(a1-6)]Man(a1-6)[Man(a1-2)Man(a1-2)Man(a1-3)]Man
# In short: as §1
# [10] = molecular target: Man(a1-2)Man(a1-3)[Man(a1-2)Man(a1-6)]Man(a1-6)[Man(a1-2)Man(a1-2)Man(a1-3)]Man(b1-4)GlcNAc(b1-4)GlcNAc
# In short: as §1
# [11] = molecular target: Man(a1-2)Man(a1-3)[Man(a1-6)]Man(a1-6)[Man(a1-2)Man(a1-3)]Man(b1-4)GlcNAc(b1-4)GlcNAc
# In short: as §1
# [12] = molecular target: Man(a1-2)Man(a1-6)[Man(a1-3)]Man(a1-6)[Man(a1-2)Man(a1-2)Man(a1-3)]Man
# In short: as §1
# [13] = molecular target: Man(a1-2)Man(a1-6)[Man(a1-3)]Man(a1-6)[Man(a1-2)Man(a1-2)Man(a1-3)]Man(b1-4)GlcNAc(b1-4)GlcNAc
# In short: as §1
# Man(a1-3)[Man(a1-6)]Man = molecular target: Man(a1-3)[Man(a1-6)]Man
# In short: as §1
# [14] = molecular target: Man(a1-3)[Man(a1-6)]Man(a1-6)[Man(a1-2)Man(a1-3)]Man(b1-4)GlcNAc(b1-4)GlcNAc
# In short: as §1
# [15] = molecular target: Man(a1-3)[Man(a1-6)]Man(a1-6)[Man(a1-3)]Man
# In short: as §1
# [16] = molecular target: Man(a1-3)[Man(a1-6)]Man(a1-6)[Man(a1-3)]Man(b1-4)GlcNAc(b1-4)GlcNAc
# In short: as §1
# [17] = molecular target: Man(a1-3)[Man(a1-6)]Man(b1-4)GlcNAc(b1-4)GlcNAc
# In short: as §1
# [18] = molecular target: Man(a1-3)[Man(a1-6)]Man(b1-4)GlcNAc(b1-4)[Fuc(a1-6)]GlcNAc
# In short: as §1
# Man(a1-6)Man = molecular target: Man(a1-6)Man
# In short: as §1
# Man(b1-4)GlcNAc = molecular target: Man(b1-4)GlcNAc
# In short: as §1
# MurNAc(b1-4)GlcNAc = molecular target: MurNAc(b1-4)GlcNAc
# In short: as §1
# Neu5Ac(a2-3)Gal = molecular target: Neu5Ac(a2-3)Gal
# In short: as §1
# [19] = molecular target: Neu5Ac(a2-3)Gal(b1-3)GalNAc
# In short: as §1
# [20] = molecular target: Neu5Ac(a2-3)Gal(b1-3)GalNAc(b1-3)Gal(a1-4)Gal(b1-4)Glc
# In short: as §1
# [21] = molecular target: Neu5Ac(a2-3)Gal(b1-3)GalNAc(b1-4)[Neu5Ac(a2-3)]Gal(b1-4)Glc
# In short: as §1
# [22] = molecular target: Neu5Ac(a2-3)Gal(b1-3)GalNAc(b1-4)[Neu5Ac(a2-8)Neu5Ac(a2-3)]Gal(b1-4)Glc
# In short: as §1
# [23] = molecular target: Neu5Ac(a2-3)Gal(b1-3)GalNAc6S
# In short: as §1
# [24] = molecular target: Neu5Ac(a2-3)Gal(b1-3)GlcNAc
# In short: as §1
# [25] = molecular target: Neu5Ac(a2-3)Gal(b1-3)GlcNAc(b1-2)Man
# In short: as §1
binder,measurement,setting,value
B1,glycan array binding signal (z-score),[1],-0.342
same,glycan array binding signal (z-score),[2],0.016
same,glycan array binding signal (z-score),[3],-0.596
same,glycan array binding signal (z-score),GlcNAc(b1-6)GalNAc,1.42
same,glycan array binding signal (z-score),[4],0.017
same,glycan array binding signal (z-score),Kdn(a2-3)Gal(b1-3)GalNAc,0.802
same,glycan array binding signal (z-score),Kdn(a2-3)Gal(b1-3)GlcNAc,-0.302
same,glycan array binding signal (z-score),Kdn(a2-3)Gal(b1-4)Glc,2.27
same,glycan array binding signal (z-score),Kdn(a2-3)Gal(b1-4)GlcNAc,0.548
same,glycan array binding signal (z-score),[5],-0.067
same,glycan array binding signal (z-score),Kdn(a2-6)Gal(b1-4)GlcNAc,0.665
same,glycan array binding signal (z-score),[6],0.112
same,glycan array binding signal (z-score),[7],-0.081
same,glycan array binding signal (z-score),Man(a1-2)Man(a1-3)Man,-0.411
same,glycan array binding signal (z-score),[8],-0.925
same,glycan array binding signal (z-score),[9],-1.13
same,glycan array binding signal (z-score),[10],2.02
same,glycan array binding signal (z-score),[11],-1.48
same,glycan array binding signal (z-score),[12],-0.785
same,glycan array binding signal (z-score),[13],-1.21
same,glycan array binding signal (z-score),Man(a1-3)[Man(a1-6)]Man,1.49
same,glycan array binding signal (z-score),[14],1.23
same,glycan array binding signal (z-score),[15],0.08
same,glycan array binding signal (z-score),[16],0.117
same,glycan array binding signal (z-score),[17],-0.811
same,glycan array binding signal (z-score),[18],-1.15
same,glycan array binding signal (z-score),Man(a1-6)Man,0.387
same,glycan array binding signal (z-score),Man(b1-4)GlcNAc,0.728
same,glycan array binding signal (z-score),MurNAc(b1-4)GlcNAc,-1.51
same,glycan array binding signal (z-score),Neu5Ac(a2-3)Gal,-1.07
same,glycan array binding signal (z-score),[19],-0.724
same,glycan array binding signal (z-score),[20],0.297
same,glycan array binding signal (z-score),[21],-0.484
same,glycan array binding signal (z-score),[22],0.575
same,glycan array binding signal (z-score),[23],-0.423
same,glycan array binding signal (z-score),[24],-0.376
same,glycan array binding signal (z-score),[25],4.28

# Part of the list above, with tabs.
binder	measurement	setting	value
B1	glycan array binding signal (z-score)	Man(b1-4)GlcNAc	0.728
same	glycan array binding signal (z-score)	MurNAc(b1-4)GlcNAc	-1.51
